Reference: patent US4529737A, “Analgesic and anti-inflammatory arylalkanoic acid phthalidyl esters and pharmaceutical compositions thereof” (priority 1979, dated 1985)

Legend:
[1] = in vivo; details: mouse
[2] = in vivo; details: rat

Compound: COc1ccc2cc([C@H](C)C(=O)O)ccc2c1 [Compound II, d-2-(6-methoxy-2-naphthyl)propionic acid, reference compound]
- LD50 [1]: 1190 mg/kg
- LD50 [2]: 575 mg/kg
